These are yes or no findings as the source states them, for the method shown. Some results given as binding are weak or reduced against the parent protein; the word gives no strength.
Target: T1, prolargin (PRELP), recombinant human (human) (UniProt P51888)
T1 sequence: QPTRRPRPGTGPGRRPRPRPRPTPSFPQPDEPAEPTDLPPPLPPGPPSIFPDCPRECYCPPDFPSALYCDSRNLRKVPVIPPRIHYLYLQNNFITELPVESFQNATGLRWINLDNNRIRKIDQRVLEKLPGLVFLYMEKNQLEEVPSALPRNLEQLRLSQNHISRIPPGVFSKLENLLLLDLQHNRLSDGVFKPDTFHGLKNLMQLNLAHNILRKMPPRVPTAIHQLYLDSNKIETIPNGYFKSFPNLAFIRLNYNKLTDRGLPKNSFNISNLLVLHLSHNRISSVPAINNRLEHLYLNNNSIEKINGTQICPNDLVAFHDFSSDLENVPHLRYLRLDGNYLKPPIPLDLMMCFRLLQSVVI
Assay: SPR

Sequences of proteins named here, by UniProt entry; tags and fusion partners are left off. Residues count along the entry.
UniProt P14210, residues 32-728: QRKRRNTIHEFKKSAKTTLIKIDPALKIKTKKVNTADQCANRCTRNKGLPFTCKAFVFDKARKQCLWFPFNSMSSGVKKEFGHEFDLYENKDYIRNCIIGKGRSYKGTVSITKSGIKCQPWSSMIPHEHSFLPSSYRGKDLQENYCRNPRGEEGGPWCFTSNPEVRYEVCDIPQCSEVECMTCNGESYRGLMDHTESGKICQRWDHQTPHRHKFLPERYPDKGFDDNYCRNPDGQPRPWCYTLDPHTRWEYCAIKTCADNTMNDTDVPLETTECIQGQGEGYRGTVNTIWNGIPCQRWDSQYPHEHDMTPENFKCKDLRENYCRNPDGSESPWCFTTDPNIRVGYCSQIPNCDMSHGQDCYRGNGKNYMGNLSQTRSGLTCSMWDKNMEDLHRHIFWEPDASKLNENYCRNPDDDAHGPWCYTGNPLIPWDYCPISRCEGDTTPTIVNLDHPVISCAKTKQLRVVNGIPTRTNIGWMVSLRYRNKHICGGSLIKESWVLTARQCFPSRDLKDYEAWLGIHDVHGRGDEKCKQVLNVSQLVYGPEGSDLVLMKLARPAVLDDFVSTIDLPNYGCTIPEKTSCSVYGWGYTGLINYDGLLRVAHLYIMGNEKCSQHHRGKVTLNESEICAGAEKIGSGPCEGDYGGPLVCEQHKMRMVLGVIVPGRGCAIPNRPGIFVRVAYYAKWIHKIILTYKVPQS

binding: binds
Substance: HGF (from UniProt P14210 32-728) (ligand)
